Laboratory results from the supplement of paper PMC10849652.
The other results are listed elsewhere or left out.

Sequences of proteins named here, by UniProt entry; tags and fusion partners are left off. A change or cut given only in a name is not applied to a line headed by its entry.
UniProt Q13535: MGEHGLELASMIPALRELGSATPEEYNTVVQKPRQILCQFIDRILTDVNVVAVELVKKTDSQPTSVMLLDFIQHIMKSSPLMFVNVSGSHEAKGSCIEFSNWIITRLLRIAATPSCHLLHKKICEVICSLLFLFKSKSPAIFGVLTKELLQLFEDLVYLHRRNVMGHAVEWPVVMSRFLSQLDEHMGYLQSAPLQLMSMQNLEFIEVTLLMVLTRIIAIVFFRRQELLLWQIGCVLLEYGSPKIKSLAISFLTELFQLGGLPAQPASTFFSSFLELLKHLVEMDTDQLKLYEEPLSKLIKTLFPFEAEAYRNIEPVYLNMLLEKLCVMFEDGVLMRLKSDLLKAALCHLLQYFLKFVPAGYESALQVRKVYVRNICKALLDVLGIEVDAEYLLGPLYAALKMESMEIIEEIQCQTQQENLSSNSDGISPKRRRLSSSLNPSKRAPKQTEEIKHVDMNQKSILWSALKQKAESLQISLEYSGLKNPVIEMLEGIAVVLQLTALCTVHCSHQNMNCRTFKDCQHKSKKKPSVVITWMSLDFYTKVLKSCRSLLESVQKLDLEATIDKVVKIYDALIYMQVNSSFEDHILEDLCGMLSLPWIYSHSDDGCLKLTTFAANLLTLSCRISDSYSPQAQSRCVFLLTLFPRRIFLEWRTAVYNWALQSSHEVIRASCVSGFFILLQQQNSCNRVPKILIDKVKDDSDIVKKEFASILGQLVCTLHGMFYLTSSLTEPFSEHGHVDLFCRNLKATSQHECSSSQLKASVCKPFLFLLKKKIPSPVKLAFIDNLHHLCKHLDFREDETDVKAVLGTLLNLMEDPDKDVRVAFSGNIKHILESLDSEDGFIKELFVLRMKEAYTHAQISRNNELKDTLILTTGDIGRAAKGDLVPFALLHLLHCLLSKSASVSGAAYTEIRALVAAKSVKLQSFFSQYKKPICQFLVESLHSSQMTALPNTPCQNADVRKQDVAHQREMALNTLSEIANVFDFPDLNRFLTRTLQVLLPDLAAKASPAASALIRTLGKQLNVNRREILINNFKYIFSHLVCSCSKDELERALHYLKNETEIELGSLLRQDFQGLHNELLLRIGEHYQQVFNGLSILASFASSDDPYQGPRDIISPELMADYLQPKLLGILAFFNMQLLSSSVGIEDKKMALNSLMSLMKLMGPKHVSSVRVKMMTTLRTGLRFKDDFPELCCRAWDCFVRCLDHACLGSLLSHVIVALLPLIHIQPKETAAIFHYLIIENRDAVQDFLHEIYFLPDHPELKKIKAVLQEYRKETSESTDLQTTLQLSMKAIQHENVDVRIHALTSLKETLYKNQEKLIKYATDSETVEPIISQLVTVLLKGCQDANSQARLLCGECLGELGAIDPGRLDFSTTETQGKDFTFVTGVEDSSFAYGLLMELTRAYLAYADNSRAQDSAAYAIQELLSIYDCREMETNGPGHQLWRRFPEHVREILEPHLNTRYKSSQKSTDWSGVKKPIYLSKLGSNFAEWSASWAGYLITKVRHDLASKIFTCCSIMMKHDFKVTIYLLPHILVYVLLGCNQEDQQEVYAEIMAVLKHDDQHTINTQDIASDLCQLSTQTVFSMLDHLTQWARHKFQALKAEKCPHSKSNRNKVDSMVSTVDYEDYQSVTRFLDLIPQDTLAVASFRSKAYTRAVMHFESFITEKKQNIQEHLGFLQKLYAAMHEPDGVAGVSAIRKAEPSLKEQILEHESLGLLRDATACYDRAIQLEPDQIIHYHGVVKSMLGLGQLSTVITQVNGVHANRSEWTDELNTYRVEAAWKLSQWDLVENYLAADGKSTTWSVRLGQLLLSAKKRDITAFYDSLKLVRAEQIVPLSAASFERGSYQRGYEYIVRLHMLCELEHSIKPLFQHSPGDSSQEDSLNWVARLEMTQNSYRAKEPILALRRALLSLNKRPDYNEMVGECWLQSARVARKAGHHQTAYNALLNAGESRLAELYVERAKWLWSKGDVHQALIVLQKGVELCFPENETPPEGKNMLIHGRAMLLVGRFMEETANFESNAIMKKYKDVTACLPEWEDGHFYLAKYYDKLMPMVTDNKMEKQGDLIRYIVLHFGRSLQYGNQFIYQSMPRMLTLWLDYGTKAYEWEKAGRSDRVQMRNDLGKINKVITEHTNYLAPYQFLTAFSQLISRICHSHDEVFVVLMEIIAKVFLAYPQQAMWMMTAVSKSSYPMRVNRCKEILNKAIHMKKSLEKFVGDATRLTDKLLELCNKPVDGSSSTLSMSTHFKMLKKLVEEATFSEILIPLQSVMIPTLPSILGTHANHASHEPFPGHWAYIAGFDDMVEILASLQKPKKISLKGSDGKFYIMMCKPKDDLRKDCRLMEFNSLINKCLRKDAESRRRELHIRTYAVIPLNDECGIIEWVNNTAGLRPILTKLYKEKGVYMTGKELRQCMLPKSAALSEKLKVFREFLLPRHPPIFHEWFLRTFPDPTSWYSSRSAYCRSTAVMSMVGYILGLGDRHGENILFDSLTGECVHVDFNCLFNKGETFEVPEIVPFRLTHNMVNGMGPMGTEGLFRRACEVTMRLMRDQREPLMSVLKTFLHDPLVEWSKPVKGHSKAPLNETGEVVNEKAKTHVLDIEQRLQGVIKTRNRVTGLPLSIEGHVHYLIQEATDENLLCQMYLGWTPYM
UniProt P56381: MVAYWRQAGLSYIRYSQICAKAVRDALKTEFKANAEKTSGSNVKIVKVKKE
UniProt O75882: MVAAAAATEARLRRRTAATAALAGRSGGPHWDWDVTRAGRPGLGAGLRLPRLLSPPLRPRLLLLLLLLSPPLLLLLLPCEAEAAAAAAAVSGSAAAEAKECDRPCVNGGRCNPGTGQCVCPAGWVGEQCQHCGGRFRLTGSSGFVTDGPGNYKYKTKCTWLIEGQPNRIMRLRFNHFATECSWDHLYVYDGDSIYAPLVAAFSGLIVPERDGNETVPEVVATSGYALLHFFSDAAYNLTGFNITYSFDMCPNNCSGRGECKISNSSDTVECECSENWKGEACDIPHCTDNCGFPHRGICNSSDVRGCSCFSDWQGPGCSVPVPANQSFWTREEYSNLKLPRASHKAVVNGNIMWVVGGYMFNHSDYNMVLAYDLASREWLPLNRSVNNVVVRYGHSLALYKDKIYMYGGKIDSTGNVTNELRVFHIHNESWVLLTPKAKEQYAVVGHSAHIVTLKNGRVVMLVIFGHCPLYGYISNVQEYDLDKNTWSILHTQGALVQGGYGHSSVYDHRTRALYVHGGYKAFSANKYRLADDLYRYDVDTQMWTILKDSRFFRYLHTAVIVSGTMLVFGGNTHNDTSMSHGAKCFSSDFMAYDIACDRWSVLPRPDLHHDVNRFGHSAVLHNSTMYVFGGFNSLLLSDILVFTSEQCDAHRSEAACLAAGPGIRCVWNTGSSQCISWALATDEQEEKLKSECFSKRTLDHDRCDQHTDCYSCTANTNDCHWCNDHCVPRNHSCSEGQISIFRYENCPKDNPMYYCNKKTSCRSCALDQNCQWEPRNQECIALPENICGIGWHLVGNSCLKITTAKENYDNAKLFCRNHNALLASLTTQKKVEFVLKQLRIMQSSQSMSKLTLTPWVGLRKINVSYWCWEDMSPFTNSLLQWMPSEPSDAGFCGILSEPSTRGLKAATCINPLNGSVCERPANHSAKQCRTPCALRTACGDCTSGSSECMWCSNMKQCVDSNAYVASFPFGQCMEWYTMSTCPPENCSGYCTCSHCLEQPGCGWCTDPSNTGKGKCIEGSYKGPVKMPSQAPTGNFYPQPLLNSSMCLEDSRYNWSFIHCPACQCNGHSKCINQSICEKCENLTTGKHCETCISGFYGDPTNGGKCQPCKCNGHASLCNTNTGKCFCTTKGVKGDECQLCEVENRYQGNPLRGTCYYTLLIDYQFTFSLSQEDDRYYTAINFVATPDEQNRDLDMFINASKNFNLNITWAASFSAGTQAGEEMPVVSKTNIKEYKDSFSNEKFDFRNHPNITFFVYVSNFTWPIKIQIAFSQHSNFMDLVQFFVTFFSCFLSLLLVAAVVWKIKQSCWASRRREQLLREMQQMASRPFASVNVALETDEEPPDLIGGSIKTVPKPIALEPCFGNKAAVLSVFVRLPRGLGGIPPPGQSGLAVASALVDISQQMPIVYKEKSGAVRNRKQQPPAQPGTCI
UniProt P15336: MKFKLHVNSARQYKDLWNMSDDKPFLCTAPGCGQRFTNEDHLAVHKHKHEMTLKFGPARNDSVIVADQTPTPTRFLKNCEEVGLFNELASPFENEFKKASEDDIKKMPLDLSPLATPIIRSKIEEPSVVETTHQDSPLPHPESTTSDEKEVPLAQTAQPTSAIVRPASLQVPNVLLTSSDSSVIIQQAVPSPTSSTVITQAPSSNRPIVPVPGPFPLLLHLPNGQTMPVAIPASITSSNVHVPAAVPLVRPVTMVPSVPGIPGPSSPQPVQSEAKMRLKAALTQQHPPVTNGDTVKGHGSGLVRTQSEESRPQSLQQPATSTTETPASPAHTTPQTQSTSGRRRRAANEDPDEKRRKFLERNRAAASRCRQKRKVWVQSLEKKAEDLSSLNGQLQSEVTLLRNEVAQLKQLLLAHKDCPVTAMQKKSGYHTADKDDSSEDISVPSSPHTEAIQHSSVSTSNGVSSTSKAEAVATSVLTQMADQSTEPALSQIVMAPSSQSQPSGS
UniProt Q9NQ11: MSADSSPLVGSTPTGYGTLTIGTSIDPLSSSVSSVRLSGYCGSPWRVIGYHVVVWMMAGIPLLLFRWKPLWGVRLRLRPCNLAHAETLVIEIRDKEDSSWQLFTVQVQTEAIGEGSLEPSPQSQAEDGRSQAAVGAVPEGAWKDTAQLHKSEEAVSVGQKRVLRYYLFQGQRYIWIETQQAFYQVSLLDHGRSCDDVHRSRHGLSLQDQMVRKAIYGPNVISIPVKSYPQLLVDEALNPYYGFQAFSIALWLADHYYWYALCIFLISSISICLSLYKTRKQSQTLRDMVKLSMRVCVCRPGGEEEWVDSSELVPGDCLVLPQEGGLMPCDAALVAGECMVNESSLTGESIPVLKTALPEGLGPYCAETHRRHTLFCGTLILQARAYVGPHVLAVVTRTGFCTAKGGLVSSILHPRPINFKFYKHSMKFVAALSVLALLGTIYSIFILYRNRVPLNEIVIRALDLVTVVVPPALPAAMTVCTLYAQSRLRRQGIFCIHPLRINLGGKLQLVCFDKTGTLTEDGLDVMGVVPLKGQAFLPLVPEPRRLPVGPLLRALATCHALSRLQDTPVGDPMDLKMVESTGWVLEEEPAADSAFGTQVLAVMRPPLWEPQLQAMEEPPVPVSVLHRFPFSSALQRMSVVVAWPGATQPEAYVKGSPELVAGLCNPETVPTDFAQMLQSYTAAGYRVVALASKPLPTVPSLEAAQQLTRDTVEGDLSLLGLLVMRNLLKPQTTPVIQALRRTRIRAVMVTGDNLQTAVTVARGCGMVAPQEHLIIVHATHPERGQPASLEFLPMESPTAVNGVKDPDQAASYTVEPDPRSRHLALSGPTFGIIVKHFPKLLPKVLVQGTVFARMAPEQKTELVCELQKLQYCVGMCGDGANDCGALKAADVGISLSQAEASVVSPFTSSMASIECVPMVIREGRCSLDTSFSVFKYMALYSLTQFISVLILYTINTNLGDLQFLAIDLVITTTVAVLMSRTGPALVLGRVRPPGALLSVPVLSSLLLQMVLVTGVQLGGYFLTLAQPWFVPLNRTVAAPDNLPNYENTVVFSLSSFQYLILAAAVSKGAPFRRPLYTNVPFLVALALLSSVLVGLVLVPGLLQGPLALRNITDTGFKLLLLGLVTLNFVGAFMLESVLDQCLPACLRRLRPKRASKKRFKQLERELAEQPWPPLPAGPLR
UniProt Q6UW56: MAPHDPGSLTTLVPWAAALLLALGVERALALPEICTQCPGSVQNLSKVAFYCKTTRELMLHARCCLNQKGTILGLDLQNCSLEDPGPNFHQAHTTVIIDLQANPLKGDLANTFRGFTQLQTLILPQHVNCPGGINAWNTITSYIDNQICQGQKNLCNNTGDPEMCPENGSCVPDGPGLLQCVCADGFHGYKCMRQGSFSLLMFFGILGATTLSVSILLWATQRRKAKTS
UniProt P08243: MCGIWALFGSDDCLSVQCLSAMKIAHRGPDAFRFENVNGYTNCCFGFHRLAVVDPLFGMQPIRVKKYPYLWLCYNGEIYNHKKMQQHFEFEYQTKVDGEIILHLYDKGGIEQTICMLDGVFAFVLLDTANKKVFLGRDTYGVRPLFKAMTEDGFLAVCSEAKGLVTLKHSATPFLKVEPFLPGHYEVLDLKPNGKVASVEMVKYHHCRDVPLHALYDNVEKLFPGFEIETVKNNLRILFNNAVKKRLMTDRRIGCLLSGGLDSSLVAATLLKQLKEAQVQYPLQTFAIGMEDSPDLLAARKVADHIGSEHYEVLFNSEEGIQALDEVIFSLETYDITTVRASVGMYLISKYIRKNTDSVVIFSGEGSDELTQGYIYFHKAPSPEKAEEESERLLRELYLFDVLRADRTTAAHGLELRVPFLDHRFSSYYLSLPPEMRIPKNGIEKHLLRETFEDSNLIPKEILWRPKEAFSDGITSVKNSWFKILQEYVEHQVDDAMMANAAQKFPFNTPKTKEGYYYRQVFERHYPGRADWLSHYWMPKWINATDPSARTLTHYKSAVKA

Legend:
Test in all cases: log2 fold change, soluble protein after heating vs DMSO (PISA); higher = thermal stabilisation; K562 lysate, 10 uM; active = over 0.2 and 3.5 SD of the protein, either way, in both replicates (recomputed)
vemurafenib = compound: CCCS(=O)(=O)Nc1ccc(F)c(C(=O)c2c[nH]c3ncc(-c4ccc(Cl)cc4)cc23)c1F [vemurafenib]
Method in brief: (§1)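 Quantification was by TMTpro 16plex LC-MS/MS with equalised channel sums, applied to the supernatant after 21,000xg for 90 min. Samples were crude K562 extract at 1 mg/mL protein in PBS pH 7.4 with 1 mM MgCl2, treated with 10 μM compound for 30 min, heated for 3 min across 48°C-58°C, pooled and brought to 0.5% NP-40 at 4°C. Values are log-two fold changes in thermal stability relative to solvent controls, from duplicates.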

[1] = compound: CCCS(=O)(=O)Nc1ccc(F)c(C(=O)c2c[nH]c3ncc(Cl)cc23)c1F
Method in brief: as §1

barasertib = compound: CCN(CCCOc1ccc2c(Nc3cc(CC(=O)Nc4cccc(F)c4)[nH]n3)ncnc2c1)CCOP(=O)(O)O [barasertib]
Method in brief: as §1

[2] = compound: CC[C@@H]1C(=O)N(C)c2cnc(Nc3ccc(C(=O)NC4CCN(C)CC4)cc3OC)nc2N1C1CCCC1
Method in brief: as §1

volasertib = compound: CC[C@@H]1C(=O)N(C)c2cnc(Nc3ccc(C(=O)N[C@H]4CC[C@H](N5CCN(CC6CC6)CC5)CC4)cc3OC)nc2N1C(C)C [volasertib]
Method in brief: as §1

[3] = compound: CCn1c(C(=O)N(C2CC2)C2CC2)cc2c3c(ncn3C)c(Nc3cc(C)n(C)n3)nc21
Method in brief: as §1

[4] = compound: CCn1cc(-c2ccnc3[nH]c(-c4cccc(CN(C)C)c4)cc23)c(-c2ccc(NC(=O)N(C)C)cc2)n1
Method in brief: as §1

[5] = compound: CN1CCC(CNc2ccc3ncc(-c4cccc(OC(F)(F)F)c4)n3n2)CC1
Method in brief: as §1

saracatinib = compound: CN1CCN(CCOc2cc(OC3CCOCC3)c3c(Nc4c(Cl)ccc5c4OCO5)ncnc3c2)CC1 [saracatinib]
Method in brief: as §1

sotrastaurin = compound: CN1CCN(c2nc(C3=C(c4c[nH]c5ccccc45)C(=O)NC3=O)c3ccccc3n2)CC1 [sotrastaurin]
Method in brief: as §1

| Target | log2 fold change (vemurafenib) | log2 fold change [1] | log2 fold change (barasertib) | log2 fold change [2] | log2 fold change (volasertib) | log2 fold change [3] | log2 fold change [4] | log2 fold change [5] | log2 fold change (saracatinib) | log2 fold change (sotrastaurin) |
| --- | --- | --- | --- | --- | --- | --- | --- | --- | --- | --- |
| ATR (UniProt Q13535) | inactive: 0.059 | inactive: 0.013 | inactive: 0 | inactive: 0.017 | inactive: -0.13 | inactive: 0.018 | inactive: -0.307 | inactive: 0.337 | inactive: 0.018 | inactive: 0.081 |
| ATG3 (UniProt Q9NT62) | inactive: -0.086 | inactive: 0.005 | inactive: -0.086 | inactive: -0.089 | inactive: -0.008 | inactive: 0.014 | inactive: -0.041 | inactive: 0.017 | inactive: -0.002 | inactive: -0.021 |
| ATG5 (UniProt Q9H1Y0) | inactive: 0.029 | inactive: 0.022 | inactive: 0.019 | inactive: 0.022 | inactive: 0.012 | inactive: 0.007 | inactive: -0.019 | inactive: 0.034 | inactive: 0.047 | inactive: -0.031 |
| ATG7 (UniProt O95352) | inactive: -0.031 | inactive: 0.014 | inactive: -0.002 | inactive: -0.032 | inactive: -0.052 | inactive: 0.021 | inactive: -0.058 | inactive: 0.091 | inactive: -0.003 | inactive: 0.037 |
| ATP5F1E (UniProt P56381) | inactive: -0.032 | inactive: -0.011 | inactive: -0.004 | inactive: 0.064 | inactive: 0.015 | inactive: 0.06 | inactive: 0.013 | inactive: -0.022 | inactive: -0.069 | inactive: -0.014 |
| ATP6V1A (UniProt P38606) | inactive: -0.029 | inactive: -0.001 | inactive: -0.019 | inactive: 0.016 | inactive: 0.009 | inactive: -0.003 | inactive: -0.007 | inactive: 0.03 | inactive: 0.01 | inactive: 0.007 |
| ATP6AP2 (UniProt O75787) | inactive: 0.041 | inactive: -0.043 | inactive: 0.025 | inactive: 0.056 | inactive: -0.095 | inactive: 0.033 | inactive: 0.023 | inactive: -0.061 | inactive: 0.051 | inactive: 0.007 |
| ATP5F1C (UniProt P36542) | inactive: -0.019 | inactive: 0.003 | inactive: -0.027 | inactive: 0.029 | inactive: 0.013 | inactive: -0.009 | inactive: -0.01 | inactive: -0.013 | inactive: -0.003 | inactive: 0.027 |
| ASL (UniProt P04424) | inactive: 0.001 | inactive: -0.013 | inactive: 0.033 | inactive: 0.002 | inactive: 0.016 | inactive: -0.009 | inactive: 0.009 | inactive: 0.027 | inactive: -0.015 | inactive: 0.016 |
| ATRN (UniProt O75882) | inactive: -0.04 | inactive: 0.078 | inactive: -0.04 | inactive: 0.205 | inactive: -0.005 | inactive: 0.063 | inactive: -0.155 | inactive: 0.184 | inactive: 0.086 | inactive: 0.046 |
| ATG101 (UniProt Q9BSB4) | inactive: 0.002 | inactive: 0.03 | inactive: 0.081 | inactive: 0.048 | inactive: 0.026 | inactive: -0.025 | inactive: -0.032 | inactive: -0.039 | inactive: 0.069 | inactive: 0.005 |
| ATP5MPL (UniProt P56378) | inactive: -0.025 | inactive: -0.019 | inactive: 0.004 | inactive: -0.054 | inactive: 0.022 | inactive: 0.007 | inactive: 0.077 | inactive: -0.104 | inactive: 0.007 | inactive: 0.029 |
| ATF2 (UniProt P15336) | inactive: 0.078 | inactive: -0.028 | inactive: -0.102 | inactive: 0.07 | inactive: 0.033 | inactive: -0.014 | inactive: 0.107 | inactive: -0.083 | inactive: 0.026 | inactive: 0.015 |
| ATP5PB (UniProt P24539) | inactive: 0.012 | inactive: -0.013 | inactive: 0.035 | inactive: 0.022 | inactive: 0.025 | inactive: 0 | inactive: 0.057 | inactive: -0.018 | inactive: 0.007 | inactive: -0.05 |
| AVEN (UniProt Q9NQS1) | inactive: 0.177 |  | inactive: -0.091 | inactive: 0.117 |  | inactive: -0.025 | active: -0.651 | inactive: 0.167 | inactive: 0 | inactive: -0.007 |
| B3GLCT (UniProt Q6Y288) | inactive: 0.11 | inactive: 0.008 | inactive: -0.023 | inactive: 0.036 | inactive: -0.035 | inactive: -0.038 | inactive: -0.066 | inactive: 0.001 | inactive: 0.035 | inactive: 0.031 |
| AURKB isoform 5 (UniProt Q96GD4) | inactive: 0.165 |  | inactive: 0.738 | inactive: -0.003 |  |  | inactive: 0.67 | inactive: 0.093 | inactive: 0 | inactive: -0.018 |

| Target | log2 fold change (vemurafenib) | log2 fold change [1] | log2 fold change (barasertib) | log2 fold change [2] | log2 fold change (volasertib) | log2 fold change [3] | log2 fold change [4] | log2 fold change [5] | log2 fold change (saracatinib) | log2 fold change (sotrastaurin) |
| --- | --- | --- | --- | --- | --- | --- | --- | --- | --- | --- |
| ATP6V0D1 (UniProt P61421) | inactive: -0.037 | inactive: -0.006 | inactive: 0.186 | inactive: -0.033 | inactive: 0.043 | inactive: 0.014 | inactive: -0.052 | inactive: -0.025 | inactive: -0.028 | inactive: -0.021 |
| ATP7B (UniProt P35670) | inactive: 0.047 | inactive: -0.019 | inactive: 0.067 | inactive: -0.051 | inactive: 0.106 |  | inactive: 0.026 | inactive: 0.009 | inactive: 0.144 | inactive: -0.023 |
| ASB3 isoform 3 (UniProt Q9Y575) | inactive: 0.122 |  | inactive: 0.186 | inactive: -0.176 |  |  |  |  |  |  |
| ATP13A2 (UniProt Q9NQ11) | inactive: 0.02 | inactive: 0.037 | inactive: 0 | inactive: 0.066 | inactive: -0.011 | inactive: -0.032 | inactive: -0.035 | inactive: 0.03 | inactive: -0.03 | inactive: 0.1 |
| ATG10 (UniProt Q9H0Y0) | inactive: 0.026 |  | inactive: 0.092 | inactive: 0.016 |  | inactive: 0.012 | inactive: -0.021 | inactive: 0.01 | inactive: -0.021 | inactive: 0.038 |
| ATP11B (UniProt Q9Y2G3) | inactive: 0.011 | inactive: -0.016 | inactive: 0.014 | inactive: 0.014 | inactive: 0.03 | inactive: 0.029 | inactive: -0.189 | inactive: 0.081 | inactive: 0.016 | inactive: 0.017 |
| ATRAID isoform 3 (UniProt Q6UW56) | inactive: 0.067 | inactive: 0.049 |  | inactive: 0.079 | inactive: -0.014 | inactive: -0.098 |  |  | inactive: 0.042 | inactive: 0.002 |
| ATP5F1A (UniProt P25705) | inactive: -0.018 | inactive: -0.012 | inactive: -0.008 | inactive: 0.001 | inactive: 0.026 | inactive: 0.004 | inactive: 0.036 | inactive: 0.002 | inactive: -0.064 | inactive: 0.006 |
| ATP6V1B2 (UniProt P21281) | inactive: 0.018 | inactive: -0.009 | inactive: -0.042 | inactive: 0.02 | inactive: 0.005 | inactive: -0.037 | inactive: -0.066 | inactive: 0.079 | inactive: 0.004 | inactive: -0.006 |
| ATP2B4 (UniProt P23634) | inactive: 0.002 | inactive: -0.002 | inactive: 0.026 | inactive: -0.027 | inactive: -0.004 | inactive: -0.019 | inactive: -0.185 | inactive: 0.145 | inactive: 0.024 | inactive: 0.009 |
| ATXN7L3B (UniProt Q96GX2) | inactive: 0.006 |  | inactive: -0.054 | inactive: -0.149 |  | inactive: -0.068 | inactive: -0.054 | inactive: 0.015 | inactive: 0.007 | inactive: 0.005 |
| ASCC2 (UniProt Q9H1I8) | inactive: 0.037 | inactive: 0.069 | inactive: 0.025 | inactive: -0.054 | inactive: -0.024 | inactive: 0.007 | inactive: 0.051 | inactive: -0.103 | inactive: 0.04 | inactive: 0.027 |
| AUNIP isoform 2 (UniProt Q9H7T9) | inactive: -0.11 |  | inactive: 0.044 | inactive: -0.163 |  | inactive: 0.171 | inactive: -0.044 | inactive: 0.01 | inactive: 0.002 | inactive: -0.002 |
| ASNS (UniProt P08243) | inactive: -0.002 | inactive: -0.002 | inactive: 0.025 | inactive: -0.056 | inactive: -0.047 | inactive: 0.005 | inactive: 0.031 | inactive: -0.03 | inactive: 0.022 | inactive: 0.014 |
| ATF7IP2 (UniProt Q5U623) | inactive: 0.062 | inactive: -0.041 | inactive: 0.009 |  | inactive: 0.083 | inactive: -0.064 | inactive: -0.145 | inactive: 0.197 |  | inactive: 0.031 |
| ASPM (UniProt Q8IZT6) | inactive: 0.071 | inactive: 0.033 |  | inactive: -0.092 | inactive: 0.011 | inactive: 0.037 | inactive: 0.049 | inactive: 0.005 | inactive: 0.079 | inactive: -0.004 |

Two entries picked at random from those above:

| Target | log2 fold change (vemurafenib) | log2 fold change [1] | log2 fold change (barasertib) | log2 fold change [2] | log2 fold change (volasertib) | log2 fold change [3] | log2 fold change [4] | log2 fold change [5] | log2 fold change (saracatinib) | log2 fold change (sotrastaurin) |
| --- | --- | --- | --- | --- | --- | --- | --- | --- | --- | --- |
| AURKB isoform 5 (UniProt Q96GD4) | inactive: 0.165 |  | inactive: 0.738 | inactive: -0.003 |  |  | inactive: 0.67 | inactive: 0.093 | inactive: 0 | inactive: -0.018 |
| ATP5PB (UniProt P24539) | inactive: 0.012 | inactive: -0.013 | inactive: 0.035 | inactive: 0.022 | inactive: 0.025 | inactive: 0 | inactive: 0.057 | inactive: -0.018 | inactive: 0.007 | inactive: -0.05 |
